These are yes or no findings as the source states them, for the method shown. Some results given as binding are weak or reduced against the parent protein; the word gives no strength.
Experiments:
[1] = target: T1, Zmax1 cytoplasmic domain bait (entire cytoplasmic domain and a portion of the transmembrane domain) (human) (UniProt O75197); assay: yeast two-hybrid screens
T1 sequence: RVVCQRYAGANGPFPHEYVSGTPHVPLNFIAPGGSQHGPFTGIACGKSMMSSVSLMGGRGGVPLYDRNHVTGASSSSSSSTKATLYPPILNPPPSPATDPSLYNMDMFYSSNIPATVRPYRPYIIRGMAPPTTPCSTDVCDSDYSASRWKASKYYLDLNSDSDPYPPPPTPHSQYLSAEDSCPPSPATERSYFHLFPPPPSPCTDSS

[2] = target: T1, Zmax1 cytoplasmic domain bait (entire cytoplasmic domain and a portion of the transmembrane domain) (human); assay: yeast two-hybrid screen, Zmax1 cytoplasmic domain as bait; listed in Table 6 (Yeast Two Hybrid Results)

- binding [1]: binds
- binding [2]: binds
B1: PINCH-like protein (novel) (protein, not shown: large carriers)
chain: STGSEFPLCTKASPCSAARAGGRALGWRLQQQRETRGNPGNPGLGVAATMTGSNMSDALANAVCQRCQARFSPAERIVNSNGELYHEHCFVCAQCFRPFPEGLFYEFEGRKYCEHDFQMLFAPCCGSCGEFIIGRVIKAMNNNWHPGCFRCELCDVELADLGFVKNAGRHLCRPCHNREKAKGLGKYICQRCHLVIDEQPLMFRSDAYHPDHFNCTHCGKELTAEARELKGELYCLPCHDKMGVPICGACRRPIEGRVVNALGKQWHVEHFVCAKCEKPFLGHRHYEKKGLAYCEL

Source: patent publication US20030219793A1
